Results of single-concentration screens

The chains behind the UniProt entries cited, without tags or fusion partners. Residues count along the entry.
UniProt P9WNZ1, whole entry: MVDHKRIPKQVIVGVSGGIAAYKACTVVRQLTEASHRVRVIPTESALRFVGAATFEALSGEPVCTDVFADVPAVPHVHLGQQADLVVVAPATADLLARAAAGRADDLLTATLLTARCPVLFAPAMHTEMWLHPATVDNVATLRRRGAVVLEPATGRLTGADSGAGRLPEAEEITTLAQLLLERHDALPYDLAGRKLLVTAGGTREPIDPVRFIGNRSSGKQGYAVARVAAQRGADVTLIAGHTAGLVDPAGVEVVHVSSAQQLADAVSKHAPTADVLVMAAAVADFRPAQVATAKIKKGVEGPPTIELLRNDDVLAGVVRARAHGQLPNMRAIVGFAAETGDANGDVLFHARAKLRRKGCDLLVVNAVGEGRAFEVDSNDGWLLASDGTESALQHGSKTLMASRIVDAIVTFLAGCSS
UniProt I6X8D2, whole entry: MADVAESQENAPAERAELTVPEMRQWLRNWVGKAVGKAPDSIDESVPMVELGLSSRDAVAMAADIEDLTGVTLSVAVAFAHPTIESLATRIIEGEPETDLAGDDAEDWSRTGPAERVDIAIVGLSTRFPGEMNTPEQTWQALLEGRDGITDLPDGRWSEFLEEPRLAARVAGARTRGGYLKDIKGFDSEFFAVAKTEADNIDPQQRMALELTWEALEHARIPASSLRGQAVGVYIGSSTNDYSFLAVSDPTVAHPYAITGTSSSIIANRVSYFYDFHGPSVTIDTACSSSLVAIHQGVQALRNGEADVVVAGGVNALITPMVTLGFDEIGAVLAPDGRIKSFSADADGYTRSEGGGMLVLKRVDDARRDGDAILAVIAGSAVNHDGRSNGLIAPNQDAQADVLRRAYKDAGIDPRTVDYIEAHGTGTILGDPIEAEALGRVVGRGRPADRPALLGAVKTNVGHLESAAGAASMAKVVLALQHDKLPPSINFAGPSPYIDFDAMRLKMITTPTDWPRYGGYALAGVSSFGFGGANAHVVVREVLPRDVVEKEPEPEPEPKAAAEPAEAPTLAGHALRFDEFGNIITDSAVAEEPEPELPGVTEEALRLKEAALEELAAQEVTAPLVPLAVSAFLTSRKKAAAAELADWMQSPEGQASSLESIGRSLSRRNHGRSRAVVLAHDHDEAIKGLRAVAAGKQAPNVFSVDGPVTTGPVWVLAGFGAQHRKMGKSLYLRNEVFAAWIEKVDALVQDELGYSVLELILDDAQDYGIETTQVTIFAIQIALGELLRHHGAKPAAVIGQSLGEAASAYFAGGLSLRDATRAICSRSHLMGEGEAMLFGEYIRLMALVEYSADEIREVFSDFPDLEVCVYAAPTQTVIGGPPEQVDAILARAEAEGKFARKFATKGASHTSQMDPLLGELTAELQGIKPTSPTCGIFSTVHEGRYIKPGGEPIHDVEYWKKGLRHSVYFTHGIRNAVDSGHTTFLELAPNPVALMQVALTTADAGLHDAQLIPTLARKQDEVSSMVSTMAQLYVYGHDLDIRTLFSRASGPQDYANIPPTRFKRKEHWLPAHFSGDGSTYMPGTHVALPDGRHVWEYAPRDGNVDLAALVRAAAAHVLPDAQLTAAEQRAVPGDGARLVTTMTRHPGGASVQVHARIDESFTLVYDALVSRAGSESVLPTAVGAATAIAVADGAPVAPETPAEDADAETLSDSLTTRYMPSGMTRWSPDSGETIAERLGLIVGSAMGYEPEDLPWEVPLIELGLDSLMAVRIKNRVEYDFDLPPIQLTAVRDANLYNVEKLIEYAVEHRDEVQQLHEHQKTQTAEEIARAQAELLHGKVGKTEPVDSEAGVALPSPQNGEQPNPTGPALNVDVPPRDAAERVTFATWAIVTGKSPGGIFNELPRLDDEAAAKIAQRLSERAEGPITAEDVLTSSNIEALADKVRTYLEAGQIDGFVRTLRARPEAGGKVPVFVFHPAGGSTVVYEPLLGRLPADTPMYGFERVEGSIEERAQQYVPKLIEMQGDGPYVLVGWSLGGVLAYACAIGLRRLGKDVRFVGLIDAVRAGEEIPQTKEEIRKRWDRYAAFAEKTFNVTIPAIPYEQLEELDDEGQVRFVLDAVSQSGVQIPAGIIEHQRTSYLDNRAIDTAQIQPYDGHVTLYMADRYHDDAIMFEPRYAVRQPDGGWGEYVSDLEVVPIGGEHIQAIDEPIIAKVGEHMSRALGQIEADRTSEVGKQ
UniProt P9WPC5, whole entry: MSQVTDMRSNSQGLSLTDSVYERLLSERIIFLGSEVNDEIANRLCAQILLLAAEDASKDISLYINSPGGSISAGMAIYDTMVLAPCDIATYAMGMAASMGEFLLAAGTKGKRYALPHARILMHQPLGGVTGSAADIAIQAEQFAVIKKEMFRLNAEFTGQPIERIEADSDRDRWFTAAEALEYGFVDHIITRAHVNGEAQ
UniProt P9WPC3, whole entry partner: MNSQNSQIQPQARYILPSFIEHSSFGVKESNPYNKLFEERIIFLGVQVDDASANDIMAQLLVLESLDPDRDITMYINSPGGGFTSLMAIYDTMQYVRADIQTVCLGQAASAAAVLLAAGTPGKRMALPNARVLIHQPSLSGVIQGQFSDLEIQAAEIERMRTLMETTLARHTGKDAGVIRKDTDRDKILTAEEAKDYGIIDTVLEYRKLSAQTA
UniProt A4I591, 1-473: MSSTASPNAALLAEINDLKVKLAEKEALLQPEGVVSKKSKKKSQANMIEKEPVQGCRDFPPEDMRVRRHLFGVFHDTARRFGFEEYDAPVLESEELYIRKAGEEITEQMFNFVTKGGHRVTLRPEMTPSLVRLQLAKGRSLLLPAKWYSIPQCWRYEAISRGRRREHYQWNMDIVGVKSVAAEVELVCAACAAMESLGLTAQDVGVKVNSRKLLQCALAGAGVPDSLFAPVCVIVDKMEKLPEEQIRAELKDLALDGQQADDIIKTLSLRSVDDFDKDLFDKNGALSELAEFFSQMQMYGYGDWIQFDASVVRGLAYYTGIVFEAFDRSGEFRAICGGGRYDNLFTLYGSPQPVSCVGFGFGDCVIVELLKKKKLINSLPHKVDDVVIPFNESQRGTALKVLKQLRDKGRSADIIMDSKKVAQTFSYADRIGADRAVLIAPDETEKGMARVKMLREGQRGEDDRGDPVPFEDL
UniProt P9WFT3, whole entry: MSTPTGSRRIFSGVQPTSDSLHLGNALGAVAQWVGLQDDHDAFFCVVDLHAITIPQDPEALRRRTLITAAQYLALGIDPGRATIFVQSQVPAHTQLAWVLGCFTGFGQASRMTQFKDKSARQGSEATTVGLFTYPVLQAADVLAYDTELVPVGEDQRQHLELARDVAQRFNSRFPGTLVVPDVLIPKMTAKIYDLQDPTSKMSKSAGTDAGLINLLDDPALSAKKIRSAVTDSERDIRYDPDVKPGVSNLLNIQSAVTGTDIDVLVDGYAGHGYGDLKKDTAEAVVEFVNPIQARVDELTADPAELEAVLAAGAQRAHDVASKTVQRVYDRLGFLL

From ChEMBL document CHEMBL3988442, “University of Dundee, Small-Polar-MMV Screening Library” (2021).

CoaBC: 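Enzyme assay of CoaBC with a phosphate dye (Biomol Green) read at 650 nm. Target: Coenzyme A biosynthesis protein CoaBC, Mycobacterium tuberculosis (UniProt P9WNZ1). Compounds at 30 µM. Higher reads as stronger inhibition, judged from the few compounds that gave an IC50. Most strong results did not repeat in a second test. Size under these conditions: about 67,000 compounds, about 40 of them at 50% or above in at least one test.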
Pks13 thioesterase: 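Enzyme assay of the thioesterase domain of polyketide synthase 13; the read-out is not stated. Target: Polyketide synthase Pks13, Mycobacterium tuberculosis (UniProt I6X8D2). Compounds at 30 µM. The record gives no direction; the compounds picked for IC50 retests had high values, so higher reads as stronger inhibition. About 67,000 compounds were tested under these conditions; 0.46% (about 300) showed 50% or more at least once.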
ClpP1P2: 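ClpP1P2, Mycobacterium tuberculosis (UniProt P9WPC5 and UniProt P9WPC3). Protease assay of ClpP1P2, read by the AMC dye that it sets free. Tested at 50 µM. Direction is inferred from only a few compounds that gave an IC50; most scored high, so higher reads as stronger inhibition. Most other retested compounds had strongly negative values. Of about 69,000 compounds tested this way, about 10 (0.015%) reached 50% or more in at least one test.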
LiHisRS: 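Enzyme assay of histidyl-tRNA synthetase; the read-out is not stated. Target: Histidine-tRNA ligase, Leishmania infantum (UniProt A4I591). Compounds at 30 µM. The record gives no direction; compounds that gave an IC50 in retests scored well above the rest, so higher reads as stronger inhibition. The assay is labelled LdHisRS but filed under L. infantum. About 69,000 compounds were tested under these conditions; 0.6% (about 410) showed 50% or more at least once.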
MtTrpRS: 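Tryptophan-tRNA ligase, Mycobacterium tuberculosis (UniProt P9WFT3). Enzyme assay of tryptophanyl-tRNA synthetase; the read-out is not stated. Compounds at 10 µM. Higher most likely means stronger inhibition; the record gives no direction and few retests gave an IC50. About 65,000 compounds were tested under these conditions; 0.098% (about 64) showed 50% or more at least once.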

The filed quantity is “Percent Effect” (%).
The record does not define 0% and 100%; most values in the screen are far below 50% and negative numbers occur (in some assays of this library far below -100).
This is an unselected part of the compounds tested.

With CN(CCCc1nccn1C)c1nccc(N2CCC(O)C2)n1 (stereo not shown) the screen gave CoaBC: -0.495%; Pks13 thioesterase: -1.735%; ClpP1P2: -5.937%; LiHisRS: 4%; MtTrpRS: -2.006%.
With CCCN1CC2(CCN(C)CC2)CC1C(=O)NCCn1ccc(C)n1 (stereo not shown) the screen gave CoaBC: 0.8739%; Pks13 thioesterase: -21.44%; ClpP1P2: 10.9%; LiHisRS: 16.53%; MtTrpRS: 0.1564%.
With CCCC(=O)N(C)c1cc(C#N)c2ccccc2n1 the screen gave CoaBC: -1.235%; Pks13 thioesterase: -9.995%; ClpP1P2: -17.98%; LiHisRS: 21.51%; MtTrpRS: -1.25%.
With CN(C)CC1(O)CCN(C(=O)c2cnc(-c3ccccn3)nc2)C1 (stereo not shown) the screen gave CoaBC: 1.811%; Pks13 thioesterase: -3.781%; ClpP1P2: -1.264%; LiHisRS: 30.77%; MtTrpRS: 0.838%.
With Cc1cc(=O)[nH]c(SC(C)C(=O)N2CCC(c3ncc[nH]3)CC2)n1 (stereo not shown) the screen gave CoaBC: -18.83%; Pks13 thioesterase: -24.67%; ClpP1P2: -4.353%; LiHisRS: 16.44%; MtTrpRS: 1.49%.
With COc1cc(CN2CCn3c(CO)nnc3C2)ccc1OC(C)C the screen gave CoaBC: -3.163%; Pks13 thioesterase: -36.83%; ClpP1P2: -5.144%; LiHisRS: 5.263%; MtTrpRS: 11.88%.
With CCc1ccccc1OC1CN(C(=O)c2ccnc(OC)c2)C1 the screen gave CoaBC: 2.451%; Pks13 thioesterase: -6.859%; ClpP1P2: -7.813%; LiHisRS: 17.78%; MtTrpRS: 3.086%.
With COc1ccc2c(c1)OCC(CNC(=O)c1cnc(O)cn1)C2 (stereo not shown) the screen gave CoaBC: 0.2554%; Pks13 thioesterase: -21.16%; ClpP1P2: -9.177%; LiHisRS: 20.78%; MtTrpRS: 4.944%.
With O=C(CCc1ccc(F)cc1)NS(=O)(=O)c1ccc2c(c1)OCCO2 the screen gave CoaBC: 1.053%; Pks13 thioesterase: 5.191%; ClpP1P2: -12.9%; LiHisRS: 7.547%; MtTrpRS: -3.627%.
With CCC(=O)N1CCOC(c2cc(Nc3nncs3)cc(C)n2)C1 (stereo not shown) the screen gave CoaBC: 8.717%; Pks13 thioesterase: -6.042%; ClpP1P2: -7.152%; LiHisRS: 9.79%; MtTrpRS: -2.807%.
With CCc1c(C)n(C)c2nc3ccccc3n2c1=O the screen gave CoaBC: -5.896%; Pks13 thioesterase: -5.87%; ClpP1P2: 6.645%; LiHisRS: -23.08%; MtTrpRS: -3.387%.
With Cc1nc(COc2ccc(S(=O)(=O)N(C)C)cc2)sc1C the screen gave CoaBC: 2.886%; Pks13 thioesterase: -9.611%; ClpP1P2: 1.1%; LiHisRS: 8.434%; MtTrpRS: -1.53%.
With O=C(NC1CCC1)[C@H]1C[C@H]2NCCO[C@@H]2C1 the screen gave CoaBC: -3.268%; Pks13 thioesterase: 12.44%; ClpP1P2: -6.142%; LiHisRS: 3.509%; MtTrpRS: -1.401%.
With CCCS(=O)(=O)N1CCC2(CC1)CN(CC1CCOC1)c1ccccc12 (stereo not shown) the screen gave CoaBC: 0.9877%; Pks13 thioesterase: 24.24%; ClpP1P2: -33.55%; LiHisRS: 6.364%.
With CN1C(=O)CCCC12CCCN(C(=O)c1cccc(C(F)(F)F)c1)C2 (stereo not shown) the screen gave CoaBC: 4%; Pks13 thioesterase: -17.18%; ClpP1P2: -2.636%; LiHisRS: -2.752%; MtTrpRS: -1.327%.

The last 2 entries again:

Result for CCCS(=O)(=O)N1CCC2(CC1)CN(CC1CCOC1)c1ccccc12 (stereo not shown) was CoaBC: 0.9877%; Pks13 thioesterase: 24.24%; ClpP1P2: -33.55%; LiHisRS: 6.364%.
Result for CN1C(=O)CCCC12CCCN(C(=O)c1cccc(C(F)(F)F)c1)C2 (stereo not shown) was CoaBC: 4%; Pks13 thioesterase: -17.18%; ClpP1P2: -2.636%; LiHisRS: -2.752%; MtTrpRS: -1.327%.